# Source: PubChem BioAssay AID504834 (National Center for Advancing Translational Sciences (NCATS), 2011)
# Among all 320,000 compounds or so, about 22,000 (6.9%) were called active. The inconclusive results got no clear call from the source; some entries with a clear call stand among them for comparison. The call rests on the fitted dose curve; in most records, active means well fitted inhibition curve with a large enough effect; inconclusive means small, poorly fitted or top-dose-only effect, or another doubt; inactive means no such curve, though single readings can be large or run the other way. Potencies beside an inconclusive call are fits to weak or partial responses and may not hold up.
# Experiment: Primary qHTS for delayed death inhibitors of the malarial parasite plastid, 96 hour incubation
# Conditions: P. falciparum luciferase reporter growth; series mostly up to 28.7 µM; activity change, negative = inhibition: at the top concentration
# In short: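 Plates of compound plus infected erythrocytes (2% hematocrit, 0.05% parasitemia final) incubate 96 hours, 37 C, 5% CO2. Detection reagent added; reduced luminescence from the parasites' luciferase reporter flags inhibition.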
# On the % scale 0 is the no-effect control and ±100 the full control effect; potency means the concentration at half of the fitted maximal effect.
Structure (SMILES),Potency,"activity change, negative = inhibition"
COc1ccc(OC)c(-c2nn(-c3ccccc3)cc2C(=O)N2CCc3ccccc3C2)c1,"inconclusive: 6.57 µM [inhibitor, partial curve, poor fit]",–
CCc1cc(=O)oc2cc(C)cc(OC(C)C(=O)NCCCN3CCOCC3)c12 (centres undefined),"inconclusive: 18.5 µM [inhibitor, single point]",–
CN(C(=O)COc1ccc(C(C)(C)C)cc1)C1CCS(=O)(=O)C1 (centres undefined),"inconclusive: 3.7 µM [inhibitor, single point]",–
Cc1ccc(CNC(=O)c2ccc(N3CCC4(CC3)CC(c3ccccc3)=NO4)c(NC(=O)c3cccc(C)c3)c2)cc1,"inconclusive: 3.7 µM [inhibitor, single point]",–
COc1cccc(-c2nc3ccc(C(=O)N4CCCC(O)C4)cc3o2)c1 (centres undefined),active: 10.4 µM,–
CCOc1ccc2nc(C)cc(C(=O)O)c2c1,"inconclusive: 2.33 µM [inhibitor, partial curve, poor fit]",–
COc1ccccc1Nc1nc(NCc2ccco2)c2ccccc2n1,"inconclusive: 4.15 µM [inhibitor, single point]",–
COCCNCCCOc1ccc(C(C)(C)c2ccccc2)cc1,"inconclusive: 16.5 µM [inhibitor, single point]",–
COc1cccc(NC(=O)c2nn(C34CC5CC(CC(C5)C3)C4)cc2[N+](=O)[O-])c1,active: 8.28 µM,–
CC1CC(C)CN(C2CCN(Cc3cccnc3)CC2)C1 (centres undefined),–,inactive: -28.7%
Cc1cc(Cl)ccc1C(=O)C1CCCN(C(=O)c2cnn(C(C)C)c2)C1 (centres undefined),"inconclusive: 18.5 µM [inhibitor, single point]",–
O=C(NCCc1cccc(C(F)(F)F)c1)C1CCC(=O)N(C2CC2)C1 (centres undefined),"inconclusive: 18.5 µM [inhibitor, single point]",–
CC1CCN(c2nc3c(c(=O)n(C)c(=O)n3C)n2Cc2ccccc2)CC1,"inconclusive: 10.4 µM [inhibitor, single point]",–
Cc1cccc(-c2nc(CS(=O)CC(=O)NC3CCCC(C)C3C)c(C)o2)c1 (centres undefined),–,inactive: 51.3%
CCOC(=O)N1CCN(C(=O)CSc2ncnc3ccccc23)CC1,"inconclusive: 0.147 µM [inhibitor, full curve, poor fit]",–
CCCCNC(=S)NNC(=O)c1csc(C)c1,–,inactive: 44.8%
COc1ccc2[nH]c(C)c(CN3CCC(C)CC3)c(=O)c2c1,"inconclusive: 2.62 µM [inhibitor, partial curve, poor fit]",–
S=C1NCCc2ccc(Cl)cc2C1c1ccccc1Cl (centres undefined),"inconclusive: 16.5 µM [inhibitor, single point]",–
O=C(c1ccccc1F)N(Cc1cccs1)C1CCS(=O)(=O)C1 (centres undefined),"inconclusive: 1.04 µM [inhibitor, partial curve, poor fit]",–
COc1ccc(OC)c(S(=O)(=O)N(C)CC(=O)N2CCN(c3ccccc3)CC2)c1,–,inactive: 3.74%
CC(C)(C)n1nc2c(c1NC(=O)c1cc(Cl)ccc1[N+](=O)[O-])CS(=O)(=O)C2,–,inactive: 4.91%
CCCn1c(SCC(=O)Nc2cccc(S(=O)(=O)NC3=NCCCCC3)c2)nc2ccccc2c1=O,active: 6.57 µM,–

# Full records as entered above. Order of values: Potency | activity change, negative = inhibition
# CCOC(=O)N1CCN(C(=O)CSc2ncnc3ccccc23)CC1 is listed as inconclusive: 0.147 µM [inhibitor, full curve, poor fit] | –
# CCCCNC(=S)NNC(=O)c1csc(C)c1 is listed as – | inactive: 44.8%

# (next part)

Structure (SMILES),Potency,"activity change, negative = inhibition"
Oc1ccccc1C1=NN(c2ccccc2)C(c2ccccc2)C1 (centres undefined),active: 1.65 µM,–
Cc1noc(C)c1CSCC(=O)N(C)CC(=O)Nc1ccc(Cl)c(Cl)c1,"inconclusive: 11.7 µM [inhibitor, partial curve]",–
CCOCCn1ccc2c(OCC(=O)Nc3cc(OC)ccc3OC)cccc2c1=O,"inconclusive: 5.86 µM [inhibitor, partial curve]",–
CN1CCN(C(=O)c2ccc(OCCOc3ccccc3)cc2)CC1,–,inactive: -15.6%
Cc1ccc(C)c(CSC2=NCCN2C(=O)Cc2ccc([N+](=O)[O-])cc2)c1,"inconclusive: 18.5 µM [inhibitor, single point]",–
O=C(OCc1nc2ccccc2s1)c1cccs1,–,inactive: 4.15%
COc1ccc(CNC(=O)C(c2ccco2)N(C(=O)c2ccccn2)c2ccccc2)cc1 (centres undefined),"inconclusive: 4.15 µM [inhibitor, partial curve]",–
O=C(NC1CC1)C1CCN(c2ncccn2)CC1,–,inactive: 18.1%
COc1ccc(C2c3ccc4ccccc4c3Oc3ncn(CCCO)c(=N)c32)cc1 (centres undefined),"inconclusive: 13.1 µM [inhibitor, partial curve]",–
Cc1nnc(SCC(=O)Nc2ccccc2F)n1Cc1ccco1,–,inactive: 37.1%
CCOC(=O)C1CCN(c2ccccc2CN2CCN(c3ccccc3OCC)CC2)CC1,"inconclusive: 3.7 µM [inhibitor, full curve, poor fit]",–
CCn1c(C)nc2cc(C(=O)N3N=C(CCOC)CC3(O)C(F)(F)F)ccc21 (centres undefined),"inconclusive: 20.8 µM [inhibitor, single point]",–
O=C1C(Cl)=C(N2CCOCC2)C(=O)N1c1ccccc1F,–,inactive: -12.2%
O=C(COc1ccc(F)cc1Br)N1CCN(S(=O)(=O)/C=C/c2ccccc2)CC1,"inconclusive: 18.5 µM [inhibitor, single point]",–
Cc1ccc(NC(=O)CCC(=O)NNC(=S)Nc2ccccc2)c(C)c1,"inconclusive: 11.7 µM [inhibitor, partial curve, poor fit]",–
CSc1sc(C(=O)NN)c2c1C1(CCC2)SCCS1,"inconclusive: 16.5 µM [inhibitor, partial curve, poor fit]",–
Cc1ccc(O)c(C2=NNC(c3ccc(Cl)cc3)C2)c1 (centres undefined),"inconclusive: 18.5 µM [inhibitor, single point]",–
C/C(=N\NC(=O)c1nnn(-c2nonc2N)c1-c1ccc2c(c1)OCO2)c1ccc(F)cc1,active: 4.65 µM,–
Cc1nnc(C)n1/N=C/c1cccn1C,"inconclusive: 13.1 µM [inhibitor, single point]",–
O=C(CN1C(=O)NC2(CCCc3ccccc32)C1=O)c1ccc(Br)cc1 (centres undefined),"inconclusive: 0.165 µM [inhibitor, full curve, poor fit]",–
COc1ccc(/C=C2\SC(=O)N(CCC(=O)N3CCCCC3CCO)C2=O)cc1 (centres undefined),"inconclusive: 10.4 µM [inhibitor, single point]",–
COc1ccc(-c2nnc(NC(=O)CS(=O)(=O)c3ccc(Cl)cc3)o2)c(OC)c1,active: 8.28 µM,–
